Source: the supplement of paper PMC12823440, “Inhibitors supercharge kinase turnover through native proteolytic circuits” (Nature, 2025)
Where a name gives a salt, the structure may show the parent alone. Some of the results follow. Hit calls seldom repeat between salt and free forms of one compound.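 In K562 cells expressing nanoluciferase-fused kinases, luminescence was recorded at 4 h intervals between 2 and 18 h, normalized as percent of control with DMSO at 100% and a positive control at 0%. A significant (2 sigma) signal drop marks a time point as decreased. The authors' rule for a hit is not shown and takes in more than the number of time points.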

Amino acid sequences for entries named in this document (tags omitted). A change or cut given only in a name is not applied to a line headed by its entry.
UniProt P48729: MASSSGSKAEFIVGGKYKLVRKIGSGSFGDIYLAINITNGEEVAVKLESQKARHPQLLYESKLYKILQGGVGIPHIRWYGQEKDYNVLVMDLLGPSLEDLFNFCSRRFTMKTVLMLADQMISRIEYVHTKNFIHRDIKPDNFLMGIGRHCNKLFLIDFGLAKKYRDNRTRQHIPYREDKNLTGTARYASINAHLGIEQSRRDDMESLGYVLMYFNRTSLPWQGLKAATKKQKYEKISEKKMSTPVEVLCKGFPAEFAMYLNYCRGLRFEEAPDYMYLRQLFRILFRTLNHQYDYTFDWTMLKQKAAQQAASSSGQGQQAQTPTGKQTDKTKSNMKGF
UniProt P48730: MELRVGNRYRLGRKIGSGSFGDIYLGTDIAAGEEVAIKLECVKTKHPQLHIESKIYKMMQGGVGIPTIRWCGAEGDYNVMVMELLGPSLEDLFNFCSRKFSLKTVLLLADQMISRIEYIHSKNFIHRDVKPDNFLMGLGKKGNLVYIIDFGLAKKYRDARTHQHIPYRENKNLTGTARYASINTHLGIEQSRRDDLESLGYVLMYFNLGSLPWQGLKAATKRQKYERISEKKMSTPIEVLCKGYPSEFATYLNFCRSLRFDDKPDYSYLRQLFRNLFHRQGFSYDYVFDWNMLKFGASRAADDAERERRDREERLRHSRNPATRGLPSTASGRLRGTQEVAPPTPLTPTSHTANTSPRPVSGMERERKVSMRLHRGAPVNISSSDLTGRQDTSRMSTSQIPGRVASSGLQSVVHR
UniProt Q08345: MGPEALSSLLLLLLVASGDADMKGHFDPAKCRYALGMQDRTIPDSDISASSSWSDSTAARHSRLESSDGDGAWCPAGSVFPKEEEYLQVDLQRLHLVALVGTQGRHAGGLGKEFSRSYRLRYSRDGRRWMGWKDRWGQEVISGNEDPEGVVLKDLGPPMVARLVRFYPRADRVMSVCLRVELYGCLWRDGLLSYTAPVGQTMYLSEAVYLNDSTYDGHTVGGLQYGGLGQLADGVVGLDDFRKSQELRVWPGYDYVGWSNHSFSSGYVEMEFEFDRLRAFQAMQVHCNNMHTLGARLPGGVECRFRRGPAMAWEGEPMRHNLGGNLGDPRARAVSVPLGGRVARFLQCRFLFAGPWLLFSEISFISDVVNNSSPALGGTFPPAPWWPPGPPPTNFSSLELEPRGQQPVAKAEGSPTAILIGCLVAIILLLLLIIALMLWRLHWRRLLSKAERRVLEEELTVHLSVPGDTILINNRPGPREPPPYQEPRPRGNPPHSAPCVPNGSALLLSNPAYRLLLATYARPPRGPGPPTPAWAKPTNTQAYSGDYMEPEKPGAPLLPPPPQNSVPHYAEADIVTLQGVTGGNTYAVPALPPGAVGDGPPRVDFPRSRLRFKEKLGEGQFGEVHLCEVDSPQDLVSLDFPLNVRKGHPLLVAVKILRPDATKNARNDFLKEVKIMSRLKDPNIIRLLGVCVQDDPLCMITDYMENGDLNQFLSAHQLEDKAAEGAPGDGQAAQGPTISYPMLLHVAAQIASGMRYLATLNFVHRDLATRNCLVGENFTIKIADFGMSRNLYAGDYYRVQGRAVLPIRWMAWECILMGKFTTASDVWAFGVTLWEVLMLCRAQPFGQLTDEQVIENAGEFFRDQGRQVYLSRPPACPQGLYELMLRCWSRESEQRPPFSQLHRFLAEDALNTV
UniProt Q9Y463, whole entry, looked up: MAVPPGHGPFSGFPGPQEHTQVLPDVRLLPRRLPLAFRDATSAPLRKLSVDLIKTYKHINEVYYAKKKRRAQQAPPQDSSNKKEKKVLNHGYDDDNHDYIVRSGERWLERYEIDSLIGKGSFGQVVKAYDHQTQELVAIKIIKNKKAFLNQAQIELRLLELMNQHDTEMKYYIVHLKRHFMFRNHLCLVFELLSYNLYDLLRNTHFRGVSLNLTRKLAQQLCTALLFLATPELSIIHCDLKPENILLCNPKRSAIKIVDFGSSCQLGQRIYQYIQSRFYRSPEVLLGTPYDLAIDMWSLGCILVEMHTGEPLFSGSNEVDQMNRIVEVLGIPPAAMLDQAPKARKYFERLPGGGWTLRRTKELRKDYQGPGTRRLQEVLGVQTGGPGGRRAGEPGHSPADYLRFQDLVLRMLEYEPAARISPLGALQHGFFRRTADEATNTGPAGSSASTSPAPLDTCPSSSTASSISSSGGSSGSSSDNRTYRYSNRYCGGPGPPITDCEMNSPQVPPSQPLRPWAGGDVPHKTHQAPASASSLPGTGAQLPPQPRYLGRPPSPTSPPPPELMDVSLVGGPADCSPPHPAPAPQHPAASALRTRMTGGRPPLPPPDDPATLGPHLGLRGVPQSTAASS
UniProt Q92630: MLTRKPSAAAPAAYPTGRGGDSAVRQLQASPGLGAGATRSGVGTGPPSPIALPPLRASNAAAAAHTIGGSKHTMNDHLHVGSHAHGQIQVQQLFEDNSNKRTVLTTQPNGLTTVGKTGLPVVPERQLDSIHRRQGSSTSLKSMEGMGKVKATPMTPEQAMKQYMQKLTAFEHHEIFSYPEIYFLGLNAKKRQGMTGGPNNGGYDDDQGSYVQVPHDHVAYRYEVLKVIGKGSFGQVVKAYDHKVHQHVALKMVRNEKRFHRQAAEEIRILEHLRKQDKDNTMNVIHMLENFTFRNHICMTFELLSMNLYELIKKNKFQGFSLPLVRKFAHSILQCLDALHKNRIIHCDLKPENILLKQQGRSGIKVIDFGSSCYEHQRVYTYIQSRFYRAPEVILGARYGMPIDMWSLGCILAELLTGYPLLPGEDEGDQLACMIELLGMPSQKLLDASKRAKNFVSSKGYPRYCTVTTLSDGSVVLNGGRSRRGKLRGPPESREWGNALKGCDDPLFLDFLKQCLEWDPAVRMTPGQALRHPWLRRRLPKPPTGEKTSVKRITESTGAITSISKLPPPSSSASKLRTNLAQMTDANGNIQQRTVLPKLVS

Assays:
Test in all cases: number of time points (of 5) at which kinase-Nluc abundance scored as decreased, DMSO-normalised (count); higher = more persistent destabilization
Conditions in all cases: K562; 2-18 h
CSNK1A1 = CSNK1A1 (UniProt P48729)
CSNK1D = CSNK1D (UniProt P48730)
DDR1 = DDR1 (UniProt Q08345)
DYRK1B = DYRK1B (UniProt Q9Y463)
DYRK2 = DYRK2 (UniProt Q92630)
EGFR = EGFR (UniProt P00533)
EGFR_G719S = EGFR_G719S (UniProt P00533)
EGFR_G719S_T790M = EGFR_G719S_T790M (UniProt P00533)
EGFR_L718V = EGFR_L718V (UniProt P00533)
EGFR_L858R = EGFR_L858R (UniProt P00533)

Structure (SMILES) | number of time points (CSNK1A1) | number of time points (CSNK1D) | number of time points (DDR1) | number of time points (DYRK1B) | number of time points (DYRK2) | number of time points (EGFR) | number of time points (EGFR_G719S) | number of time points (EGFR_G719S_T790M) | number of time points (EGFR_L718V) | number of time points (EGFR_L858R)
CNC(=O)c1ccc2c(c1)ncn2-c1ccc(CC(=O)OC(C)(C)C)cc1 (10 µM) | 0 | 0 | 0 | 0 | 0 | 0 | 0 | 0 | 0 | 0
Cc1ccc(-n2nc(C(C)(C)C)cc2NC(=O)Nc2ccc(OCCN3CCOCC3)cc2)cc1 (10 µM) | 0 | 0 | 0 | 0 | 0 | 0 | 0 | 0 | 0 | 0
Nc1ncnc2c1nc(Br)n2[C@@H]1O[C@@H]2COP(=O)(O)O[C@H]2[C@H]1O [8-Bromo-cAMP sodium salt] (10 µM) | 0 | 0 | 0 | 0 | 0 | 0 | 0 | 0 | 0 | 0
O=C(NCCN1CCOCC1)Nc1nc2ccc(Sc3nnc4ccc(-c5ccc(F)cc5)nn34)cc2s1 (10 µM) | 0 | 0 | 0 | 0 | 0 | 0 | 0 | 0 | 0 | 0
O=C(Nc1cccnc1)c1cc(-c2ccnc(F)c2)ccc1OCc1ccccc1 (10 µM) | 0 | 0 | 0 | 0 | 0 | 0 | 0 | 0 | 0 | 0
Nc1nc2c(nc(Br)n2[C@@H]2O[C@@H]3COP(=O)(O)O[C@H]3[C@H]2O)c(=O)[nH]1 [8-Bromo-cGMP (sodium)] (10 µM) | 0 | 0 | 0 | 0 | 0 | 0 | 0 | 0 | 0 | 0
CCCCCc1ccc(/C=C/[C@H](O)[C@@H](CO)NC)cc1 [SK1-I (hydrochloride)] (10 µM) | 0 | 0 | 0 | 0 | 0 | 0 | 0 | 0 | 0 | 0
COC(=O)[C@H](CCSC)NC(=O)c1ccc(NC[C@@H](N)CS)cc1-c1ccccc1 [FTI-277 (hydrochloride)] (10 µM) | 0 | 0 | 0 | 0 | 0 | 0 | 0 | 0 | 0 | 0
CC(C)=CCC/C(C)=C/CC/C(C)=C/C=C/C(C)=C/C(=O)O [Peretinoin] (10 µM) | 0 | 0 | 0 | 0 | 0 | 0 | 0 | 0 | 0 | 0
Cc1cc(O)c2c(c1)C(=O)c1cccc(O)c1C2=O [Chrysophanol] (2 µM) | 0 | 0 | 0 | 0 | 0 | 0 | 0 | 0 | 0 | 0
NS(=O)(=O)c1ccc(Nc2nc(-c3cccc(-c4ccccc4)c3)c3[nH]cnc3n2)cc1 (10 µM) | 0 | 0 | 0 | 0 | 0 | 0 | 0 | 0 | 0 | 0
COc1cc(-c2cc(-c3ccc(N4CCNCC4)cc3)cnc2C)cc(OC)c1OC (10 µM) | 0 | 0 | 0 | 0 | 0 | 0 | 0 | 0 | 0 | 0
CC(C)n1c([C@H](C)Nc2ncnc(N)c2C#N)cc2cccc(-c3ccc(=O)n(C)c3)c2c1=O (10 µM) | 0 | 0 | 1 | 0 | 1 | 0 | 0 | 0 | 0 | 0
C[C@@H](Nc1ncnc2[nH]c(-c3ccc(O)cc3)cc12)c1ccccc1 (2.5 µM) | 0 | 0 | 0 | 0 | 0 | 0 | 0 | 0 | 0 | 0
Cc1cc(C(=O)NOCCO)c(Nc2ccc(I)cc2F)n(C)c1=O (10 µM) | 0 | 0 | 0 | 0 | 0 | 0 | 0 | 1 | 0 | 1
Nc1nc(N)c2nc(-c3cccc(O)c3)c(-c3cccc(O)c3)nc2n1 (10 µM) | 0 | 0 | 0 | 0 | 0 | 0 | 0 | 0 | 0 | 0
O=C(O)c1ccc(/C=C/S(=O)(=O)Cc2ccc(Cl)cc2)cc1 [Recilisib] (10 µM) | 0 | 0 | 0 | 0 | 0 | 0 | 0 | 0 | 0 | 0

Structure (SMILES) | number of time points (CSNK1A1) | number of time points (CSNK1D) | number of time points (DDR1) | number of time points (DYRK1B) | number of time points (DYRK2) | number of time points (EGFR) | number of time points (EGFR_G719S) | number of time points (EGFR_G719S_T790M) | number of time points (EGFR_L718V) | number of time points (EGFR_L858R)
CO[C@H]1C[C@@H]2CC[C@@H](C)[C@@](O)(O2)C(=O)C(=O)N2CCCC[C@H]2C(=O)O[C@H]([C@H](C)C[C@@H]2CC[C@@H](OCCO)[C@H](OC)C2)CC(=O)[C@H](C)/C=C(\C)[C@@H](O)[C@@H](OC)C(=O)[C@H](C)C[C@H](C)/C=C/C=C/C=C/1C [Everolimus] (10 µM) | 0 | 0 | 0 | 0 | 0 | 0 | 0 | 0 | 0 | 0
COCCOc1ccc2c(c1)ncn2-c1ccc2cccc(N3CCC(N)CC3)c2n1 (10 µM) | 1 | 0 | 3 | 0 | 4 | 0 | 0 | 2 | 0 | 2
CC1(N)CCN(c2cccnc2NC(=O)c2nc(-c3ncccc3C(F)(F)F)cnc2N)CC1 [Darovasertib] (10 µM) | 0 | 0 | 0 | 0 | 0 | 0 | 0 | 0 | 0 | 0
Cc1cc(Nc2cc(N)ncn2)c(=O)n2c1C(=O)NC21CCCCC1 [Tomivosertib] (10 µM) | 0 | 0 | 0 | 0 | 0 | 0 | 0 | 0 | 0 | 0
NC(=O)c1ccc(N(C(N)=O)c2c(F)cccc2F)nc1-c1ccc(F)cc1F (10 µM) | 0 | 0 | 0 | 0 | 0 | 0 | 0 | 0 | 0 | 0
NC[C@@](O)(c1ccc(Cl)cc1)c1ccc(-c2cn[nH]c2)cc1 (10 µM) | 0 | 0 | 4 | 0 | 0 | 0 | 0 | 0 | 0 | 0
CC(C)CCN1c2nc(Nc3cc(F)c(O)c(F)c3)ncc2N(C)C(=O)C1C (stereo not given) (2.5 µM) | 0 | 0 | 0 | 0 | 0 | 0 | 0 | 0 | 0 | 0
Nc1[nH]nc2nc(-c3ccc(NS(=O)(=O)c4cc(Cl)ccc4Cl)cc3)cnc12 (10 µM) | 0 | 0 | 0 | 0 | 0 | 0 | 0 | 0 | 0 | 0
CO[C@H]1C[C@@H]2CC[C@@H](C)[C@@](O)(O2)C(=O)C(=O)N2CCCC[C@H]2C(=O)O[C@H]([C@H](C)C[C@@H]2CC[C@@H](OC(=O)C(C)(CO)CO)[C@H](OC)C2)CC(=O)[C@H](C)/C=C(\C)[C@@H](O)[C@@H](OC)C(=O)[C@H](C)C[C@H](C)/C=C/C=C/C=C/1C [Temsirolimus] (2.5 µM) | 0 | 0 | 0 | 0 | 0 | 0 | 0 | 0 | 0 | 0
Cn1ncc(NC(=O)c2nc(-c3c(F)cccc3F)sc2N)c1N1CC[C@@H](N)[C@H](F)CC1 (10 µM) | 0 | 0 | 0 | 0 | 0 | 0 | 0 | 0 | 0 | 0
N#Cc1ccc(-c2cnc3ccc(-c4ccc(C(=O)N5CCOCC5)cc4)cn23)cc1 (10 µM) | 0 | 0 | 0 | 0 | 0 | 0 | 0 | 0 | 0 | 0
COc1cc2nccc(Oc3ccc(NC(=O)c4cn(C(C)C)c(=O)n(-c5ccc(F)cc5)c4=O)cc3F)c2cc1OC (0.5 µM) | 1 | 0 | 2 | 0 | 2 | 1 | 1 | 0 | 0 | 0
Cn1c(=O)c2c(nc(S(C)(=O)=O)n2C)n(CC#Cc2cccc(O)c2)c1=O (2.5 µM) | 0 | 0 | 1 | 0 | 0 | 0 | 0 | 0 | 0 | 0
Cc1ccc(C)c(OCCn2cc(C(=O)O)c3ccccc32)c1 (10 µM) | 0 | 0 | 0 | 0 | 0 | 0 | 0 | 0 | 0 | 0
c1nc2c(NC3CCCCC3)nc(Nc3ccc(N4CCOCC4)cc3)nc2[nH]1 [Reversine] (10 µM) | 0 | 0 | 1 | 0 | 4 | 0 | 0 | 0 | 0 | 1
O=C1Nc2ccc(CN3C(=O)CSC3=O)cc2/C1=C/c1cc(CN2CCOCC2)c[nH]1 (10 µM) | 0 | 0 | 0 | 0 | 0 | 0 | 0 | 0 | 0 | 0

Two entries from above, with tabs:
Structure (SMILES)	number of time points (CSNK1A1)	number of time points (CSNK1D)	number of time points (DDR1)	number of time points (DYRK1B)	number of time points (DYRK2)	number of time points (EGFR)	number of time points (EGFR_G719S)	number of time points (EGFR_G719S_T790M)	number of time points (EGFR_L718V)	number of time points (EGFR_L858R)
CO[C@H]1C[C@@H]2CC[C@@H](C)[C@@](O)(O2)C(=O)C(=O)N2CCCC[C@H]2C(=O)O[C@H]([C@H](C)C[C@@H]2CC[C@@H](OCCO)[C@H](OC)C2)CC(=O)[C@H](C)/C=C(\C)[C@@H](O)[C@@H](OC)C(=O)[C@H](C)C[C@H](C)/C=C/C=C/C=C/1C [Everolimus] (10 µM)	0	0	0	0	0	0	0	0	0	0
COCCOc1ccc2c(c1)ncn2-c1ccc2cccc(N3CCC(N)CC3)c2n1 (10 µM)	1	0	3	0	4	0	0	2	0	2
